Primary screen of a compound library

Chains of the proteins cited; added tags and fusions are not shown. Residues count along the entry.
UniProt Q8IDJ8, 1-583: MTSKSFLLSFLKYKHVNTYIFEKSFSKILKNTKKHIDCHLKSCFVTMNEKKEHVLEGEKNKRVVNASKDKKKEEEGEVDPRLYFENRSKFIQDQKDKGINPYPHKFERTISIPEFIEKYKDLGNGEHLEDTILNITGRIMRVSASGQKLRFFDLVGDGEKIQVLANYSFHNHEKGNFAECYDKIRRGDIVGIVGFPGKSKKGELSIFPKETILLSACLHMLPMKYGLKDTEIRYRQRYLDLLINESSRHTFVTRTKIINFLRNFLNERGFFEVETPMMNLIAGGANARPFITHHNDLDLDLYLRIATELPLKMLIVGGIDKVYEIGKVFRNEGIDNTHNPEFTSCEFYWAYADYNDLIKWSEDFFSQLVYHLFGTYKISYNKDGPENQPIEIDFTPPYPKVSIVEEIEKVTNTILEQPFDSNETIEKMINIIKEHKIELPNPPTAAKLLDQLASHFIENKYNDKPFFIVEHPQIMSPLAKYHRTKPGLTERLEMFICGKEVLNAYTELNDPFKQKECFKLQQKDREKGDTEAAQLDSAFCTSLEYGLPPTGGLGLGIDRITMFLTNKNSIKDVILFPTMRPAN
UniProt A4I591, 1-473: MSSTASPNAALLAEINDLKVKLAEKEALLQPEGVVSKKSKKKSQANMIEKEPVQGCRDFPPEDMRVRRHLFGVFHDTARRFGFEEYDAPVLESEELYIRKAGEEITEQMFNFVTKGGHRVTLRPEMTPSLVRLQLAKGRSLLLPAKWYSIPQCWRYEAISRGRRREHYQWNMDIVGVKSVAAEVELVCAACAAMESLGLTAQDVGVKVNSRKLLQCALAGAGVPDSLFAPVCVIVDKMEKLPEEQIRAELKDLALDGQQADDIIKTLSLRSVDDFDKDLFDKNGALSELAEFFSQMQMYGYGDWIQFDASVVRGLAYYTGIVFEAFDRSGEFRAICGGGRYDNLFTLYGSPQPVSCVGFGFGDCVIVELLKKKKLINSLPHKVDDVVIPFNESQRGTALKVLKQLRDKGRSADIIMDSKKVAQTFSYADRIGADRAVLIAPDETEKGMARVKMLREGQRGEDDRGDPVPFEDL

Data taken from ChEMBL document CHEMBL3988442, “University of Dundee, Small-Polar-MMV Screening Library” (2021).

Leishmania in macrophages: 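Cell assay of Leishmania donovani living inside macrophages; the read-out is not stated. Concentration: 30 µM. Direction is inferred from retests: higher values go with stronger inhibition. About 69,000 compounds were tested under these conditions; 1.5% (about 1,000) showed 50% or more at least once.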
PfKRS1: 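Lysine-tRNA ligase, Plasmodium falciparum 3D7 (UniProt Q8IDJ8). Enzyme assay of the cytosolic lysyl-tRNA synthetase in 384-well plates, read by luminescence. Compounds at 30 µM. Higher reads as stronger inhibition, judged from the few compounds that gave an IC50. About 69,000 compounds were tested under these conditions; 0.071% (about 49) showed 50% or more at least once.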
LiHisRS: 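Histidine-tRNA ligase, Leishmania infantum (UniProt A4I591). Enzyme assay of histidyl-tRNA synthetase; the read-out is not stated. Tested at 30 µM. The record gives no direction; compounds that gave an IC50 in retests scored well above the rest, so higher reads as stronger inhibition. The assay is labelled LdHisRS but filed under L. infantum. Size under these conditions: about 69,000 compounds, about 410 of them at 50% or above in at least one test.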

Values are the deposited “Percent Effect”, in %.
How 0% and 100% were set is not recorded. Most values in the screen are low, and negative values occur.
This is an unselected part of the compounds tested.
Two or more numbers in one place are separate tests of the same structure; such repeats can differ widely.

CCOc1nc2cnccc2n(CC(=O)NCCc2ccccc2)c1=O gave Leishmania in macrophages: -11.94%; PfKRS1: 2.756%; LiHisRS: 13.48%. O=S(=O)(c1cccs1)N1CC[C@H]2[C@H]1CCN2c1ncccn1 gave PfKRS1: 2.18%; LiHisRS: 11.65%. Result for CN(C)CCNC(=O)CNC(=O)N1CCc2c([nH]c3ccc(Cl)cc23)C1 was Leishmania in macrophages: -44.82%; PfKRS1: -9.551%; LiHisRS: -1.942%. For CN(Cc1ccco1)[C@@H]1CN(C(=O)c2cnccn2)C[C@@H]2CCCO[C@@H]21 the result was PfKRS1: 2.727%; LiHisRS: 11.29%. COCc1noc(Cn2ccc3ccccc3c2=O)n1 read Leishmania in macrophages: 18.14%; PfKRS1: 7.604%; LiHisRS: 19.67%. Result for COCCNS(=O)(=O)c1ccc2c(c1)CCN(C(=O)c1cncn1C)C2 was Leishmania in macrophages: 2.798%; PfKRS1: 1.02%; LiHisRS: 12.5%. With Cc1nc2ccccc2nc1CN1CCCCC1Cn1cncn1 (stereo not given) the screen gave Leishmania in macrophages: -4.037%; PfKRS1: 1.358%; LiHisRS: 3.306%.

For O=C(NCCCN1CCOCC1)c1cccc(OCc2ccccc2)c1 the result was Leishmania in macrophages: -12.73%; PfKRS1: -0.063%; LiHisRS: 14.29%. For CC(=O)NCc1ccc(C(=O)NC2CCc3nc(C)cn3C2)o1 (stereo not given) the result was Leishmania in macrophages: 10.96%; PfKRS1: 0.1353%; LiHisRS: 5.357%. CCOc1ccc(C(=O)N2CCCC2c2cnn(C)c2)cn1 (stereo not given) read Leishmania in macrophages: -9.625%; PfKRS1: 1.682%; LiHisRS: 8.036%. O=C(O)C(F)(F)F.O=C(O)C(F)(F)F.[H][C@@]12CCN(C(=O)c3cncc(C)c3)[C@]1([H])CCC(=O)N2CCN(C)C gave Leishmania in macrophages: 21.98%. CN(Cc1ccncc1)C1CC2(CCN(Cc3ccccn3)CC2)C1 gave Leishmania in macrophages: 28.1%; PfKRS1: 1.993%; LiHisRS: 8%. Result for COc1ncnc(N(C)C)c1NC(=O)Cc1cc(F)ccc1F was Leishmania in macrophages: -0.7727%; PfKRS1: -1.248%; LiHisRS: 8.824%. Result for COc1cc(NCc2c(C)noc2C)c(OC)cc1Cl was Leishmania in macrophages: 13.7%; PfKRS1: 5.013%; LiHisRS: 15.62%.

Cc1ccc(Oc2nccnc2C2CCN(C(=O)C(C)(C)N)CC2)cc1 read Leishmania in macrophages: 12.41% & -7.92%; PfKRS1: 3.842%; LiHisRS: 13.04%. Result for CC(C)CNC(=O)c1ccc(NC(=O)NC(C)C)cc1Cl was Leishmania in macrophages: -0.4257%; PfKRS1: 7.055%; LiHisRS: 0.8929%. CC(C)Oc1ncccc1CNC(=O)c1cc[nH]n1 read Leishmania in macrophages: 0.5068%; PfKRS1: 6.093%; LiHisRS: 11.9%. For CCOC(C)c1nc(CN2CCN(c3nccc(C)n3)CC2)cs1 (stereo not given) the result was Leishmania in macrophages: 39.95%; PfKRS1: -1.711%; LiHisRS: 9.615%. CC(Cc1ccco1)NC(=O)C1=NN(c2ccccc2)C(=O)CC1 (stereo not given) gave Leishmania in macrophages: -4.62%; PfKRS1: -3.43%; LiHisRS: 11.11%.

The first 2 entries again:

* CCOc1nc2cnccc2n(CC(=O)NCCc2ccccc2)c1=O : Leishmania in macrophages: -11.94%; PfKRS1: 2.756%; LiHisRS: 13.48%
* O=S(=O)(c1cccs1)N1CC[C@H]2[C@H]1CCN2c1ncccn1 : PfKRS1: 2.18%; LiHisRS: 11.65%